First the molecules themselves.
B1: Xenopus laevis wild-type GJA1-Flag [Xenopus laevis] / HA-tagged Rab11a [human] (parent complex)
chain 1: MGDWSALGRLLDKVQAYSTAGGKVWLSVLFIFRILLLGTAVESAWGDEQSAFVCNTQQPGCENVCYDKSFPISHVRFWVLQIIFVSTPTLLYLAHVFYLMRKEEKLNRKEEELKMVQNEGGNVDMHLKQIEIKKFKYGLEEHGKVKMRGGLLRTYIISILFKSVFEVGFIIIQWYMYGFSLSAIYTCKRDPCPHQVDCFLSRPTEKTIFIWFMLIVSIVSLALNIIELFYVTYKSIKDGIKGKKDPFSATNDAVISGKECGSPKYAYFNGCSSPTAPMSPPGYKLVTGERNPSSCRNYNKQASEQNWANYSAEQNRMGQAGSTISNTHAQPFDFSDEHQNTKKMAPGHEMQPLTILDQRPSSRASSHASSRPRPDDLEI
chain 2: MGTRDDEYDYLFKVVLIGDSGVGKSNLLSRFTRNEFNLESKSTIGVEFATRSIQVDGKTIKAQIWDTAGQERYRAITSAYYRGAVGALLVYDIAKHLTYENVERWLKELRDHADSNIVIMLVGNKSDLRHLRAVPTDEARAFAEKNGLSFIETSALDSTNVEAAFQTILTEIYRIVSQKQMSDRRENDMSPSNNVVPIHVPPTTENKPKVQCCQNI

The results in this text go back to paper PMC9448326 (2022).

This assay covers variants of B1. The assay can be described thus: co-immunoprecipitation (anti-flag antibody-conjugated beads), quantified immunoblot; HA-tagged Rab11a and GJA1-Flag co-expressed in RPE1 cells; n=3; parent: 1; read off a plot. A general note: A western blot detects proteins with antibodies after separation by electrophoresis.
As for chain 1 T154A, the ratio to parent is ~0.38.
